Results as given in PubChem BioAssay AID2685 (National Center for Advancing Translational Sciences (NCATS), 2010).
Among all 320,000 compounds or so, about 2,100 (0.66%) were called active. The shares of active, inactive and inconclusive entries below differ from those in the screen. The call rests on the fitted dose curve; in most records, active means well fitted inhibition curve with a large enough effect in the signal ratio, with a control signal flat (not every such curve was filed as active); inconclusive means small, poorly fitted or top-dose-only effect, or effect the other way, or a change in a side signal; inactive means flat fitted curve, though single readings scatter; the % refers to the signal ratio. A potency beside an inconclusive call is a rough fit, not a confirmed value.

Experiment: qHTS Assay for Lipid Storage Modulators in Drosophila S3 Cells
Details: BODIPY lipid droplet fluorescence, 18-24 h, cells fed with added oleic acid; lipid storage change, negative = inhibition: at 46.1 µM (top of the series) unless noted
How it was run: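 Drosophila S3 cells got compounds at several concentrations plus oleic acid (400 uM solution). Laser-scanning cytometry with 488 nm excitation read lipid droplets at 500-530 nm and cells at 575-640 nm. Percent activity was relative to 20 uM Triacsin C.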
On the % scale 0 is the no-effect control and ±100 the full control effect; potency means the concentration at half of the fitted maximal effect.

Row | SMILES | lipid storage change, negative = inhibition | Potency
1 | C/C(=N\NC(=O)c1ccc(Cn2cc([N+](=O)[O-])cn2)o1)c1cccc(NC(=O)c2cccnc2)c1 | inconclusive: 0.672% | 
2 | COCCn1c(SCC(=O)Nc2ccccc2OC)nnc1-c1ccco1 | inconclusive: -76.7% | 
3 | O=C(COC(=O)C1CCN(S(=O)(=O)c2ccc(Cl)c(C(F)(F)F)c2)CC1)NCc1ccco1 | inconclusive | 
4 | CNc1nccc(-c2ccc(F)cc2)c1C#N | inconclusive: 15.7% | 
5 | O=C1C2CCCN2C(c2ccc(F)cc2)N1c1nccs1 (stereo not drawn) | inconclusive: -19.1% | 
6 | O=C(COc1ccc([N+](=O)[O-])cc1)Nc1ccc(NC(=O)c2ccccc2)cc1 | inactive: 8.49% | 
7 | O=C(COc1ccc(Cl)cc1)NNC(=O)c1ccccc1C(=O)O |  | inconclusive: 0.13 µM [activator, full curve, poor fit]
8 | CC(=O)Nc1ccc(S(=O)(=O)N2CCNC(=O)CC2)cc1 | inconclusive: -187% | 
9 | Cc1cc(C)n(CCOc2ccc(Br)cc2)n1 |  | inconclusive: 8.2 µM [activator, partial curve]
10 | Cc1cccc(CSc2nnc([C@@H]3CCCN3C(=O)OC(C)(C)C)o2)c1 | inactive: 0.387% | 
11 | CC1C(=O)N2CCCc3cc(NC(=O)C4CC4)cc1c32 (stereo not drawn) | inconclusive: 37.1% | 
12 | Cc1ccc(N(CC(=O)Nc2ccc(-c3nc4ccc(C)cc4s3)cc2)S(C)(=O)=O)cc1 | inconclusive: 33.3% | 
13 | CCOC(=O)Cc1csc(NC(=O)c2c(-c3c(Cl)cccc3Cl)noc2C)n1 | inconclusive: -24.1% | 
14 | CCN(CC)S(=O)(=O)c1ccc(N2CCN(c3ccccc3OC)CC2)c(N)c1 | inconclusive: -100% | 
15 | O=C(Cn1c2ccccc2c2nc3n(c(=O)c21)CCS3)Nc1ccccc1 |  | inconclusive: 29.1 µM [falling, single point]
16 | O=C(Nc1ccc(-n2ccc(C(F)(F)F)n2)cc1)Nc1cccc(Cl)c1 | inconclusive: -36.1% | 
17 | CCc1ccc(NC(=O)NC2CCCCCCC2)cc1 | inconclusive: -79.4% | 
18 | COc1ccccc1NC1CCCCC1NS(=O)(=O)c1ccc(C)cc1 (stereo not drawn) |  | inconclusive: 11.6 µM [falling, partial curve, poor fit]
19 | Cc1ccc(OCCSc2nc(NC(C)C)nc(NC(C)C)n2)cc1 |  | inconclusive: 5.17 µM [activator, partial curve]

Row | SMILES | lipid storage change, negative = inhibition | Potency
20 | CC1(C(=O)O)CCC(C(=O)N2CCOCC2)C1(C)C (stereo not drawn) | inconclusive: 9.05% | 
21 | Cc1c(NC(=S)NC(=O)CCc2ccccc2)c(=O)n(-c2ccccc2)n1C |  | inconclusive: 0.82 µM [falling, single point]
22 | Cn1c(/N=C/c2ccccc2[N+](=O)[O-])nc2ccccc21 | inconclusive: -1.89% | 
23 | CC(=O)NC1CSCC1OC(C)=O (stereo not drawn) | inconclusive: -63.6% | 
24 | COc1ccc(-c2cc(C)no2)cc1S(=O)(=O)N1CCOc2ccccc21 | inconclusive: -14.7% | 
25 | CN(C(=O)c1cccc(NC(=O)c2ccccc2)c1)C1CCCCC1 |  | inconclusive: 7.31 µM [falling, partial curve, poor fit]
26 | Cc1cccc(C(=O)NCCCNC(=O)c2ccc(C)nc2)c1 |  | inconclusive: 6.51 µM [activator, single point]
27 | N#Cc1c(N)n(CCNC(=O)c2ccccc2)c2nc3ccccc3nc12 | inconclusive: -0.222% | 
28 | CC(=O)C(=Cc1ccc(O)cc1)C(C)=O | inactive: -1.96% | 
29 | CN(/N=C/c1cc([N+](=O)[O-])ccc1O)c1ccccc1 |  | inconclusive: 0.461 µM [falling, full curve]
30 | COc1cccc(Cn2cc(/C=N/NC(=O)c3cc(O)cc(O)c3)c3ccccc32)c1 |  | inconclusive: 0.146 µM [activator, full curve, poor fit]
31 | CC(=O)Nc1nnc(CCS(=O)(=O)c2ccc(C)c(C)c2)s1 |  | inconclusive: 2.31 µM [falling, partial curve]
32 | CN(C)C(=O)N1CCC(C(=O)N2CCCC(C(=O)c3cccc4ccccc34)C2)CC1 (stereo not drawn) | inconclusive: -38.1% | 
33 | CC(C)c1ccc(OCC(=O)NC(Cc2c[nH]c3ccccc23)C(=O)O)cc1 (stereo not drawn) | inconclusive: 7.77% | 
34 | O=C1CC[C@@H](CN(Cc2ccccc2)Cc2cn[nH]c2-c2cc3ccccc3o2)N1 | inconclusive: -10.7% | 
35 | COC(=O)C1CCN(C(=O)CSc2nc3nc(C)cc(C)n3n2)CC1 |  | inconclusive: 6.51 µM [cytotoxic, single point]
36 | CCCNC(=O)c1ccc(N2CCC3(CC2)CC(c2cccc(Br)c2)=NO3)c(NC(=O)c2ccc(Br)cc2)c1 | inconclusive: 8.39% | 
37 | Cc1ccc(C(=O)NCc2ccc3c(c2)OCO3)cc1 |  | inconclusive: 2.31 µM [activator, full curve]
38 | COc1ccc(S(=O)(=O)NC(C(=O)NCCc2ccccn2)C(C)C)cc1 (stereo not drawn) | inconclusive: 87.3% | 

Full records as entered above:
O=C1CC[C@@H](CN(Cc2ccccc2)Cc2cn[nH]c2-c2cc3ccccc3o2)N1 reads lipid storage change, negative = inhibition: inconclusive: -10.7%
COc1ccc(-c2cc(C)no2)cc1S(=O)(=O)N1CCOc2ccccc21 reads lipid storage change, negative = inhibition: inconclusive: -14.7%
